Consider 58 compounds from PubChem BioAssay AID2685 (National Center for Advancing Translational Sciences (NCATS), 2010).

This experiment is described as follows: qHTS Assay for Lipid Storage Modulators in Drosophila S3 Cells.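 As to cell number change: cells counted by Cell Tracker Red CMTPX staining in the red channel.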 The following applies: BODIPY lipid droplet fluorescence, 18-24 h; for cell number change: measured here: cell count max response, cells fed with added oleic acid. The method in brief: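 Laser-scanning cytometry quantifies lipid droplet accumulation (500–530 nm total intensity; droplet/cell object ratio) in oleic acid-fed (400 uM added) Drosophila S3 cells treated with a concentration series. 20 uM Triacsin C defined 100% inhibition.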
(In general: In qHTS, concentration-response curves come from the screen itself.)

The mark [1] stands for this setting: measured here: cell number channel AC50, cells fed with added oleic acid.
The mark [2] stands for this setting: measured here: lipid fluorescence (Fed channel) AC50, cells fed with added oleic acid.

The list shows a part of the results. The main result of the screen is listed elsewhere. These columns were measured beside it and carry no call. The list favours compounds with an active or inconclusive main result. Words in brackets tell the shape of the fitted curve; partial curves, single points and poor fits give uncertain potencies.

As a reminder, the AC50 is the concentration giving half of the maximal activity seen.

Turning to `Cc1ccccc1CN1CCN(Cc2cc(=O)c3ccccc3[nH]2)CC1CCO` (stereo unspecified), the cell number change worked out at 14.5%. Consider `Cc1ccc(C)c(S(=O)(=O)N2CCCOC2CNC(=O)C(=O)NCCc2ccco2)c1` (stereo unspecified), for which the cell number change turned out to be 14.7%. In addition, under setting [1], the AC50 is 0.116 µM [rising, full curve, poor fit]. With `CN(C)/N=C/C=C1\CCC/C(=C\c2ccc(F)c(F)c2)C1=O`, the cell number change was found to be 0.809%. In the case of `CCN(CC)C(=O)c1sc2nc(-c3cccs3)cc(-c3cccs3)c2c1N`, the cell number change is -53.6%. The AC50 under setting [1] is 1.46 µM [falling, full curve]. For the same compound, the AC50 under setting [2] was 1.64 µM [falling, full curve]. Turning to `CCOC(=O)COc1ccc(S(=O)(=O)N2CCN(c3ccccc3)CC2)cc1`, the cell number change was -46.8%. The AC50 under setting [1] was 29.1 µM [falling, single point]. In addition, the AC50 under setting [2] was 29.1 µM [falling, single point]. In the case of `Cc1noc(C)c1C(=O)Nc1nc(-c2cccs2)cs1`, the cell number change is 7.89%. Under setting [2], the AC50 is 29.1 µM [falling, single point]. Take `COc1cc(OC)cc(C2=NCCN2)c1`: the cell number change is 0.159%.

For `COc1ccc(NC(=O)c2ccccc2[N+](=O)[O-])cc1OC`, the cell number change is -3.66%. Under setting [2], the AC50 was 29.1 µM [falling, single point]. `COc1ccc(C(CNC(=O)COc2ccccc2C)N2CCCC2)cc1` (stereo unspecified): the cell number change was -1.38%. As to `CCOC(=O)[C@H]1[C@H]2COc3ccc(C)cc3[C@@H]2N2C(=O)CN(Cc3ccc(F)cc3)C(=O)[C@@]12C`, the cell number change was 3.69%. Besides, the AC50 under setting [2] is 0.206 µM [rising, full curve, poor fit]. As to `COc1cccc(OCc2cc(C(=O)N3CCCC3c3ccccn3)no2)c1` (stereo unspecified), the cell number change is 8.21%. For the same compound, the AC50 under setting [2] is 0.103 µM [falling, full curve, poor fit]. For the compound `CCCc1nn2c(=O)cc(CSCC(=O)Nc3cccc(C)c3)nc2s1`, the AC50 under setting [2] is 0.517 µM [falling, single point]. On to `CCCNC(=O)CCn1nc(-c2ccc(Cl)cc2)c2ccccc2c1=O`, for which the cell number change stood at 18.6%. Also, the AC50 under setting [2] is 4.61 µM [rising, full curve]. As to `Cc1nnc(SCCn2c(Br)nc3c2c(=O)n(C)c(=O)n3C)s1`, the cell number change came out at 31%. Further, under setting [1], the AC50 was 29.1 µM [rising, single point]. For `C=Cn1cc[n+](CC(=O)c2ccc(Cl)cc2)c1`, the cell number change stood at 14.1%. Further, under setting [2], the AC50 is 29.1 µM [rising, single point]. Regarding `COc1ccc(C(CNC(=O)c2cccc(S(=O)(=O)N3CCCC(C)C3)c2)N(C)C)cc1` (stereo unspecified), the cell number change is -6.59%. In addition, the half-maximal activity concentration (AC50) under setting [2] was 0.184 µM [rising, full curve, poor fit].

Turning to `COc1cc(/C=N/NC(=O)c2ccncc2)ccc1OCC(=O)Nc1ccc(C)c(C)c1`, the cell number change was determined as 15.4%. Regarding `CCOC(=O)c1ccccc1NC(=O)COC(=O)c1ccc(C)c(S(=O)(=O)N2CCOCC2)c1`, the cell number change was -61.5%. Also, under setting [1], the AC50 was 11.6 µM [falling, partial curve].

Regarding `CC(/C=N/N1CCN(Cc2ccccc2)CC1)=C\c1ccccc1`, the cell number change was -19.4%. Besides, the half-maximal activity concentration (AC50) under setting [2] is 29.1 µM [falling, single point]. Regarding `Cc1cccc(S(=O)(=O)Nc2nc3ccccc3nc2Nc2ccc3c(c2)OCO3)c1`, the cell number change worked out at 25.5%. For the same compound, under setting [1], the AC50 was 0.058 µM [rising, full curve, poor fit]. The AC50 under setting [2] was 0.00461 µM [rising, full curve, poor fit]. Take `COc1cccc(S(=O)(=O)Nc2ccc(C(=O)N3CCN(C(=O)c4ccco4)CC3)cc2)c1`: the cell number change was -32%. Besides, the AC50 under setting [1] was 7.31 µM [falling, full curve, poor fit]. In addition, the AC50 under setting [2] is 9.2 µM [falling, partial curve]. Turning to `Cc1ccc(NC(=O)C2CCCN(S(=O)(=O)c3ccc(-n4cnnn4)cc3)C2)cc1` (stereo unspecified), the cell number change amounted to 135%. The AC50 under setting [1] is 29.1 µM [rising, partial curve]. Consider `O=C(Nc1ccc(N2CCCC2)cc1)c1cc(Cl)ccc1Cl`, for which the cell number change was -17%. Regarding `COc1ccc(C(C)(C)C)cc1NC(=O)c1cc(S(=O)(=O)N(C)C)ccc1N1CCCC1`, the AC50 under setting [2] was 14.6 µM [falling, partial curve]. As for `COc1ccc(NC(=O)C2CCN(C(=O)c3ccco3)CC2)c(OC)c1`, the cell number change is -3.36%. The AC50 under setting [2] was 6.51 µM [rising, single point]. `CC(C)c1ccc(NC(=O)c2cccc(NC3=NC4CS(=O)(=O)CC4S3)c2)cc1` (stereo unspecified): the cell number change was -8.36%. Also, the AC50 under setting [2] was 29.1 µM [falling, single point]. `Cc1ccc(C(=O)Nc2scc(-c3ccccc3)c2C(=O)O)o1`: the cell number change was found to be 20.6%. Moreover, the AC50 under setting [1] was 6.51 µM [rising, single point]. Moreover, the concentration at half-maximal activity (AC50) under setting [2] is 0.517 µM [falling, full curve]. `Cn1cccc1Cc1nnc(SCC(=O)Nc2ccc3c(c2)OCO3)n1-c1ccc(F)cc1`: the cell number change is -2.99%. As to `Cc1ccc(OCCC(=O)OCC(=O)Nc2cc(C)nn2-c2ccccc2)cc1`, the cell number change was 67.8%. Further, the AC50 under setting [1] was 9.2 µM [rising, partial curve]. In addition, the half-maximal activity concentration (AC50) under setting [2] is 29.1 µM [rising, single point]. Regarding `O=C(OCCn1cncn1)c1cc2ccccc2oc1=O`, the cell number change is -22.9%. Also, the AC50 under setting [2] was 29.1 µM [falling, single point]. In the case of `COc1ccc(C(=O)NNC(=O)Nc2ccc(Cl)cc2)cc1`, the AC50 by setting is: under setting [1], 0.731 µM [rising, partial curve]; under setting [2], 0.651 µM [rising, full curve]. Take `CC1(C)CC(=O)C(C2C3=C(CC(C)(C)CC3=O)Oc3c(Br)cc(Br)cc32)=C(O)C1` (stereo unspecified): the cell number change is -2.07%. The AC50 under setting [1] was 0.146 µM [rising, full curve, poor fit]. Under setting [2], the AC50 was 29.1 µM [falling, single point]. Take `CN1/C(=C\C=C2/SC(=S)NC2=O)C(C)(C)c2ccccc21`: the cell number change was -97.9%. Moreover, the concentration at half-maximal activity (AC50) under setting [1] was 8.2 µM [falling, partial curve]. In addition, the AC50 under setting [2] is 29.1 µM [falling, partial curve, poor fit]. Take `CCCC(=O)N(CCN1CCOCC1)c1nc2c(OC)ccc(C)c2s1`: the cell number change is -65.7%. The AC50 under setting [1] was 20.6 µM [falling, partial curve, poor fit]. Besides, under setting [2], the AC50 was 18.4 µM [falling, single point].

For the compound `Cc1ccc(-c2noc(CSc3nc(N)cc(N)n3)n2)cc1`, under setting [1], the AC50 is 1.64 µM [rising, partial curve, poor fit]. Take `Cc1noc(C)c1C(=O)OCC(=O)Nc1cc(Cl)ccc1Oc1ccccc1`: the AC50 under setting [2] was 29.1 µM [rising, single point].

For the compound `C=C(C)CN(CC)C(=O)CSc1ccc(S(=O)(=O)N2CCN(C)CC2)cn1`, the cell number change was -15.2%. In the case of `CC(C)c1ccc(NC(=O)N2CCN(S(=O)(=O)c3ccccc3)CC2)cc1`, the cell number change was -46.6%. Further, under setting [1], the AC50 is 20.6 µM [falling, single point]. Further, under setting [2], the AC50 is 16.4 µM [falling, partial curve]. Regarding `O=C(NNC(=O)c1ccccc1-n1cccc1)c1ccc(Cl)c(Cl)c1`, the cell number change is -6.65%. Under setting [2], the AC50 is 0.0651 µM [rising, full curve, poor fit]. Regarding `CC[C@H](C)C(C(=O)N1CCN(C(=O)OC(C)(C)C)CC1)n1cc(C(CO)NC(=O)OC(C)(C)C)nn1` (stereo partly specified), the cell number change is -7.35%. Also, the AC50 under setting [2] is 0.0461 µM [falling, full curve, poor fit]. `NC1=NC(=O)C(Cc2ccc(Br)cc2)S1` (stereo unspecified): the cell number change worked out at 1.13%. The half-maximal activity concentration (AC50) under setting [2] was 29.1 µM [rising, single point].

For the compound `O=c1cc(-c2ccccc2)nc(SCc2ccc(Cl)cc2)[nH]1`, the cell number change worked out at 25.4%. Further, the AC50 under setting [2] was 29.1 µM [rising, single point]. As to `Cc1cc(-c2ccccc2)nc(N(C)NC(=O)c2ccc(Cl)cc2)c1S(C)(=O)=O`, the cell number change is -2.96%. The concentration at half-maximal activity (AC50) under setting [2] is 0.0231 µM [rising, full curve, poor fit]. As for `Cc1ccc(CNC(=O)c2ccc(Cn3nc(C)cc3C)o2)cc1`, under setting [1], the concentration at half-maximal activity (AC50) was 0.731 µM [falling, single point]. For `C#CCn1cc(/C=N/Nc2nc3ccccc3[nH]2)c2ccccc21`, the cell number change was -28.4%.

On to `COc1ccc(CNC(=O)COC(=O)c2ccc3c(c2)OCCO3)cc1`, for which the cell number change turned out to be 8.1%. In addition, the AC50 under setting [2] was 0.116 µM [rising, full curve, poor fit]. As for `O=C(Nc1nccs1)c1cccc2ccccc12`, the cell number change came out at 5.26%. Also, under setting [2], the AC50 is 1.3 µM [falling, full curve]. As to `O=C(Nc1cccc(Cl)c1N1CCCC1)c1cc2ccccc2o1`, the cell number change was -23%. The AC50 under setting [2] was 3.66 µM [rising, full curve, poor fit].

Take `Cc1nn(-c2ccc([N+](=O)[O-])cc2)c2c1C(c1cccc(Br)c1)N1C(=N2)C(=O)Nc2ccccc21` (stereo unspecified): the cell number change was 16.7%. Also, under setting [1], the AC50 was 1.16 µM [falling, full curve]. Consider `CCOc1cc(N2CCOCC2)c(OCC)cc1NC(=O)c1cc(S(=O)(=O)N2CCOCC2)ccc1Cl`, for which the cell number change worked out at 3%. For `Cc1ccc(S(=O)(=O)N2CCC(N3CCC(C)CC3)CC2)cc1`, the cell number change is 14.1%. Besides, under setting [2], the AC50 is 14.6 µM [rising, partial curve]. As to `CC(=O)OC(C)=O`, the cell number change is -7.63%. For the same compound, the AC50 under setting [2] is 0.731 µM [rising, single point]. `O=S1(=O)CCOC[C@H](CC2CCCCC2)N1Cc1ccccc1Br`: the cell number change was determined as 34.4%. Also, the AC50 under setting [1] is 0.0058 µM [rising, full curve, poor fit]. Under setting [2], the AC50 is 29.1 µM [rising, single point]. In the case of `O=[N+]([O-])c1cc(/C=N/O)ccc1SCc1ccccc1Cl`, the cell number change was -43.3%. For the same compound, the AC50 under setting [1] was 13 µM [falling, partial curve, poor fit]. Besides, the AC50 under setting [2] was 0.0411 µM [falling, full curve, poor fit].

Turning to `O=C(Nc1cc(C(F)(F)F)ccc1N1CCOCC1)c1cn2ccccc2n1`, the AC50 under setting [2] was 0.731 µM [rising, partial curve, poor fit].

Regarding `Cc1ccc(S(=O)(=O)N(C)C)cc1NC(=S)Nc1ccc2cn[nH]c2c1`, under setting [2], the AC50 is 20.6 µM [rising, single point]. For the compound `CC(C)CCNC(=O)NC(=O)COC(=O)/C=C/c1cc(Br)ccc1F`, the cell number change came to 1.18%. Also, the AC50 under setting [1] was 6.51 µM [falling, single point]. The AC50 under setting [2] is 6.51 µM [falling, single point].

Consider `O=C(NCCCN1CCOCC1)c1nn2c(C(F)(F)F)cc(-c3ccco3)nc2c1Cl`, for which the cell number change is -5.56%.
